Measured data: PubChem BioAssay AID1224826 (NIAID, 2016)

Screen: 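Knock-downs that raise or lower Tnf reporter signal after endotoxin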 (primary screen)
Cells: RAW264.7 G9 macrophages from mouse bearing reporters for p65 (GFP) and the Tnf promoter (mCherry)
Reagent: siRNA pool against mouse genes, 100 nM
Time to read-out: 16 h of LPS stimulation, after 2 days of siRNA transfection
Conditions: bacterial lipopolysaccharide (Salmonella minnesota R595), 10 ng/ml
Measured: 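Imaged Tnf reporter mCherry in nuclei, minus background, normalised per plate to the median and expressed as robust z-scores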
Direction: Tnf reporter robust z-score: higher = stronger Tnf promoter reporter signal after LPS
Rule for the call: 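a well counts as active at a score of -1.3 or below (Tlr4 knock-down control median) or above 3 (raised signal); controls and wells holding fewer than 50 cells are excluded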
Meaning of the calls: active = Tnf reporter clearly lowered or raised; inactive = no clear change in Tnf reporter
The whole screen tested about 17,000 reagents; this is a random part of them. In the full data, about 1,110 (6.6%) were called active. 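Active means lowered or raised reporter signal; replicate intensities are raw and not normalised per plate.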 Unmarked entries are inactive. Further read-outs or replicates are left out here.

| gene | Tnf reporter robust z-score | fewer than 50 cells in well |
| --- | --- | --- |
| Fli1 (GeneID 14247) | -0.57 | enough cells in well |
| Supt4a (GeneID 20922) | -0.35 | enough cells in well |
| Dusp19 (GeneID 68082) | -1.46 (active) | enough cells in well |
| Capn2 (GeneID 12334) | -0.92 | enough cells in well |
| Med15 (GeneID 94112) | 0.34 | enough cells in well |
| Rab11fip4 (GeneID 268451) | 0.36 | enough cells in well |
| Stap1 (GeneID 56792) | -0.34 | enough cells in well |
| Stx17 (GeneID 67727) | -0.87 | enough cells in well |
| Cldnd1 (GeneID 224250) | -0.93 | enough cells in well |
| Tiparp (GeneID 99929) | 0.41 | enough cells in well |
| BC106179 (GeneID 320099) | -0.06 | enough cells in well |
| Nxnl2 (GeneID 75124) | -0.53 | enough cells in well |
| Alox5 (GeneID 11689) | -0.18 | enough cells in well |
| Tnfrsf26 (GeneID 244237) | -0.21 | enough cells in well |
| Actr8 (GeneID 56249) | 0.2 | enough cells in well |
| Crlf1 (GeneID 12931) | 0.71 | enough cells in well |
| Toe1 (GeneID 68276) | – | fewer than 50 cells per well; well left out of calls |
| Hdgfl1 (GeneID 15192) | 0.7 | enough cells in well |
| Dbt (GeneID 13171) | 0.6 | enough cells in well |
| Tcl1b1 (GeneID 27379) | – | fewer than 50 cells per well; well left out of calls |
| Cpsf7 (GeneID 269061) | 0.98 | enough cells in well |
| Rfc4 (GeneID 106344) | -0.07 | enough cells in well |
| Aig1 (GeneID 66253) | 0.69 | enough cells in well |
| Ccdc187 (GeneID 329366) | – | fewer than 50 cells per well; well left out of calls |
| Ppp1r16a (GeneID 73062) | 0.15 | enough cells in well |
| Alpl (GeneID 11647) | -0.09 | enough cells in well |
| Tlk1 (GeneID 228012) | – | fewer than 50 cells per well; well left out of calls |
| Ptov1 (GeneID 84113) | – | fewer than 50 cells per well; well left out of calls |
| Ppp1r3f (GeneID 54646) | -1.14 | enough cells in well |
| Ntn4 (GeneID 57764) | 1.09 | enough cells in well |
| Ptpra (GeneID 19262) | -0.42 | enough cells in well |
| Alg2 (GeneID 56737) | 0.3 | enough cells in well |
| Carhsp1 (GeneID 52502) | -1.24 | enough cells in well |
| Zbtb46 (GeneID 72147) | 2.13 | enough cells in well |
| Dolk (GeneID 227697) | -0.15 | enough cells in well |
| Rpp40 (GeneID 208366) | -1.27 | enough cells in well |
| Tsc22d3 (GeneID 14605) | 0.31 | enough cells in well |
| Dach1 (GeneID 13134) | 0.62 | enough cells in well |
| Mbd3l1 (GeneID 73503) | -0.24 | enough cells in well |
| Adh5 (GeneID 11532) | 0.4 | enough cells in well |
| Dcaf4 (GeneID 73828) | -0.11 | enough cells in well |
| Eif5 (GeneID 217869) | 0.26 | enough cells in well |
| Or6b3 (GeneID 259041) | -0.92 | enough cells in well |
| Pask (GeneID 269224) | 1.66 | enough cells in well |
| Dnajc18 (GeneID 76594) | – | fewer than 50 cells per well; well left out of calls |
| Dsc1 (GeneID 13505) | -0.52 | enough cells in well |
| H3c11 (GeneID 319153) | – | fewer than 50 cells per well; well left out of calls |
| Cirbp (GeneID 12696) | -0.54 | enough cells in well |
| Sema3c (GeneID 20348) | 0.66 | enough cells in well |
| Grn (GeneID 14824) | 0.35 | enough cells in well |
| Ppp1r17 (GeneID 19051) | -1.11 | enough cells in well |
| T2 (GeneID 21331) | 4.45 (active) | enough cells in well |
| Zbtb17 (GeneID 22642) | -0.39 | enough cells in well |
| Ccdc71l (GeneID 72123) | 1.37 | enough cells in well |
| Cacna1g (GeneID 12291) | 0.77 | enough cells in well |
| Rb1cc1 (GeneID 12421) | 1.14 | enough cells in well |
| Faah (GeneID 14073) | 0.29 | enough cells in well |
| Vmn1r85 (GeneID 252909) | -1.14 | enough cells in well |

4 entries already listed, arranged by “Tnf reporter robust z-score”, lowest first.
| gene | Tnf reporter robust z-score | fewer than 50 cells in well |
| --- | --- | --- |
| Rpp40 (GeneID 208366) | -1.27 | enough cells in well |
| Carhsp1 (GeneID 52502) | -1.24 | enough cells in well |
| Dolk (GeneID 227697) | -0.15 | enough cells in well |
| Zbtb46 (GeneID 72147) | 2.13 | enough cells in well |
